In PMC9820335 one finds binding data, which are given here for two molecules.

By UniProt entry, the sequences of proteins in these tests, tags left out.
UniProt O60260: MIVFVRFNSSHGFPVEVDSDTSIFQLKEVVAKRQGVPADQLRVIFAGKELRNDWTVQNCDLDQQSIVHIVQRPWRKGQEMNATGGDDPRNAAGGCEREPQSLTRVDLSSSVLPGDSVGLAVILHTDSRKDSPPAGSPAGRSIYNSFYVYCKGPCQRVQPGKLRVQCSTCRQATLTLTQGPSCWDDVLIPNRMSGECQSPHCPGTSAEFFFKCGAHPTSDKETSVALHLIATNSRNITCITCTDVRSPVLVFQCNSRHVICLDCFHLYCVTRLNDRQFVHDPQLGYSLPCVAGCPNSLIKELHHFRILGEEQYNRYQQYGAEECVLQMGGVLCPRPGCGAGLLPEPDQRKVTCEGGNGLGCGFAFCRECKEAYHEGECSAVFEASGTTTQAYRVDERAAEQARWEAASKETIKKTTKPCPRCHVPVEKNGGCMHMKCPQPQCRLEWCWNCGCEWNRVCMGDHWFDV

Common to all, as to assay: co-IP; 293T cells co-transfected, treated with vehicle or GSK5182 (10 µM) for 18 h; lysates immunoprecipitated with anti-FLAG (FLAG-ERRγ forms as bait), immunoblotting for the tagged partner
Background: A western blot detects proteins with antibodies after separation by electrophoresis.

The target of assay [1] is T1, FLAG-ERRγ (estrogen-related receptor γ, wild type) (UniProt P62508).
T1 sequence: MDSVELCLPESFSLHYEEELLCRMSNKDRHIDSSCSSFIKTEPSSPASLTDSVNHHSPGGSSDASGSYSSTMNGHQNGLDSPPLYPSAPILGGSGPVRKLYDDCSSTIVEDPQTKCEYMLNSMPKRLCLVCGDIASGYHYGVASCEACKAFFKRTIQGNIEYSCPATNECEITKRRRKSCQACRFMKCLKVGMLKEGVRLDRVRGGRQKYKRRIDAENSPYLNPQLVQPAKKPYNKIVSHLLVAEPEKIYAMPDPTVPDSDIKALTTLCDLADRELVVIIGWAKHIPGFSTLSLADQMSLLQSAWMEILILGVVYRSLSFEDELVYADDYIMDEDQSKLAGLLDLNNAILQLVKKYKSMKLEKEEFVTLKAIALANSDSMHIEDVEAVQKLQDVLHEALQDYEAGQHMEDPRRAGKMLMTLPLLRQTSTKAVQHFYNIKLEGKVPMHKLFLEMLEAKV

The target in assay [2] is T2, FLAG-ERRγ-L449A/L451A (UniProt P62508).
T2 sequence: T1 sequence with L449A, L451A

Assay [3] concerns the target T1, FLAG-ERRγ (estrogen-related receptor γ, wild type). This is another data set of the same source.

Substitutions are numbered along the chain they refer to. Read-outs that look alike come from different tables or passages of the source. Results are given in words; binding and its absence hold for the method and conditions named. Binding seen in cells or lysates may run through a third protein. Some entries that bind do so weakly or less than the wild type. Sequences can lack the tags named with a protein.

For the molecule “Myc-Parkin (from UniProt O60260 1-465) (enzyme)”, in assay [1], the binding result is reported as “binds”.

B1: HA-SMILE (small heterodimer partner-interacting leucine zipper protein) (protein, UniProt Q9NS37 1-354)
chain: MRHSLTKLLAASGSNSPTRSESPEPAATCSLPSDLTRAAAGEEETAAAGSPGRKQQFGDEGELEAGRGSRGGVAVRAPSPEEMEEEAIASLPGEETEDMDFLSGLELADLLDPRQPDWHLDPGLSSPGPLSSSGGGSDSGGLWRGDDDDEAAAAEMQRFSDLLQRLLNGIGGCSSSSDSGSAEKRRRKSPGGGGGGGSGNDNNQAATKSPRKAAAAAARLNRLKKKEYVMGLESRVRGLAAENQELRAENRELGKRVQALQEESRYLRAVLANETGLARLLSRLSGVGLRLTTSLFRDSPAGDHDYALPVGKQKQDLLEEDDSAGGVCLHVDKDKVSVEFCSACARKASSSLKM
As to B1, the binding result in assay [2] and in assay [3] was “binds” each time.
